Laboratory results as given in patent US5635479A, “Treatment of gynecological malignancies with biologically active peptides” (Magainin Pharmaceuticals Inc., priority 1995, dated 1997).
Not every detail of the peptide structures is certain; ends, links or a residue may be inferred. Ends that are not written are not given here.

System: murine Spontaneous Ovarian Teratoma cells (SOT cells)
Assay: Survival and ascites accumulation of mice injected with Spontaneous Ovarian Teratoma cells
Type: in vivo
Details: Table I; i.p. days 2 and 5 after SOT cells; dose 60/50 mg/kg/day; controls 21
Description: Groups of mice, with six mice in each group, were injected with murine Spontaneous Ovarian Teratoma cells (SOT cells). At day 2, or at day 2 and day 5 after injection, the mice were injected with a saline solution, 5 mg/kg adriamycin (day 2 only), with 22 mg/kg of a peptide having the structure (SEQ ID NO:115)-NH2, or, in which each amino acid residue of (SEQ ID NO:115)-NH2 is a D-amino acid residue, such peptide hereinafter referred to as D-(SEQ ID NO:115)-NH2 or with 130 mg/kg of Cecropin A (SEQ ID NO:116)-NH2. The animals were monitored for survival time, the number of survivors in each group, the increase in lifespan, and the increase in body weight.
The treatment with adriamycin increased the lifespan by 76%.
Groups of mice, with 5 or 6 mice in each group, were injected with Spontaneous Ovarian Teratoma Cells. At 2 days and 5 days after the injection of the Spontaneous Ovarian Teratoma Cells (SOT cells), the groups of mice were injected intraperitoneally with a control saline solution, adriamycin, or with one of the following peptides:
The mice in each group were then monitored for median survival time (in days) and for increase in life span (ILS) vis a vis the control group. […]
Groups of mice, with 6 mice in each group, were injected with Spontaneous Ovarian Teratoma Cells as described in Example 2. […] The mice were then monitored for survival time, as well as for body weight.

GIGKFLHSAKKFGKAFVGEIMNS-NH2 [(SEQ ID NO:7)-NH2]
Median Survival Time: > 42 days
